Assay results from the supplement of paper PMC4604168 (melanoma cell lines).
Some of the results follow. Single values are uncertain, as repeats are few or missing.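 Cells were imaged in 1,536-well plates, and nuclei stained with an antibody against cleaved PARP were counted against all DNA-stained nuclei to give the apoptosis fraction. Screening doses were chosen to leave most cells alive, and resting and induced cleaved-PARP levels differ strongly between cell lines.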

Key:
Experiment in all cases: cleaved PARP positive nuclei fraction relative to DMSO control; melanoma cells; higher = more apoptosis
Details in all cases: library dose: low library concentration; 72 h
501Mel = system: 501Mel
A101D = system: A101D
A2058 = system: A2058
C32 = system: C32
CBRC008 = system: CBRC008 (line from a melanoma biopsy)
CBRC014 = system: CBRC014 (line from a melanoma biopsy)
CBRC016 = system: CBRC016 (line from a melanoma biopsy)
CBRC017 = system: CBRC017 (line from a melanoma biopsy)
A375 = system: A375
CBRC013 = system: CBRC013 (line from a melanoma biopsy)

Row | SMILES | cleaved PARP positive nuclei fraction (501Mel) [%] | cleaved PARP positive nuclei fraction (A101D) [%] | cleaved PARP positive nuclei fraction (A2058) [%] | cleaved PARP positive nuclei fraction (C32) [%] | cleaved PARP positive nuclei fraction (CBRC008) [%] | cleaved PARP positive nuclei fraction (CBRC014) [%] | cleaved PARP positive nuclei fraction (CBRC016) [%] | cleaved PARP positive nuclei fraction (CBRC017) [%] | cleaved PARP positive nuclei fraction (A375) [%] | cleaved PARP positive nuclei fraction (CBRC013) [%]
1 | C[C@@H](Oc1cc(-c2cnn(C3CCNCC3)c2)cnc1N)c1c(Cl)ccc(F)c1Cl [Crizotinib] + O=C(Oc1ccc([N+](=O)[O-])cc1)N1CCC(C(O)(c2ccc3c(c2)OCO3)c2ccc3c(c2)OCO3)CC1 [JZL184] (first compound 0.2 µM, partner dose 1 µM) | 71.4 | 28.6 | 29.9 | 90.2 | 183 | 151 | 75.3 | 98.5 |  | 
2 | N#CC[C@H](C1CCCC1)n1cc(-c2ncnc3[nH]ccc23)cn1 [ruxolitinib] + Cc1cc(SCc2sc(-c3ccc(C(F)(F)F)c(F)c3)nc2C)ccc1OCC(=O)O [GW0742] (first compound 1 µM, partner dose 2 µM) | 65.1 | 31.4 | 26.6 | 75.9 | 107 | 90.8 | 177 | 457 |  | 
3 | Cn1cnc2c(F)c(Nc3ccc(Br)cc3Cl)c(C(=O)NOCCO)cc21 [selumetinib] + Cc1cc(SCc2sc(-c3ccc(C(F)(F)F)c(F)c3)nc2C)ccc1OCC(=O)O [GW0742] (first compound 0.015 µM, partner dose 2 µM) | 72 | 14.8 | 87.9 | 86.5 | 43.1 | 78.8 | 152 | 116 |  | 
4 | CC(C)C[C@H](NC(=O)[C@H](Cc1ccccc1)NC(=O)c1cnccn1)B(O)O [Bortezomib] + C/C(O)=C(\C#N)C(=O)Nc1cc(Br)ccc1Br [LFM-A13] (first compound 0.001 µM, partner dose 2 µM) | 275 | 60.2 | 113 | 60.3 | 607 | 181 | 169 | 169 |  | 
5 | Cn1cc(C2=C(c3cn(C4CCN(Cc5ccccn5)CC4)c4ccccc34)C(=O)NC2=O)c2ccccc21 [Enzastaurin] + COC(=O)c1sccc1S(=O)(=O)Nc1ccc(Nc2ccccc2)cc1OC [GSK0660] (first compound 0.8 µM, partner dose 1 µM) | 125 | 11.3 | 56.4 | 246 | 229 | 119 | 79.7 | 85.8 |  | 
6 | O=C(/C=C/c1cccnc1)NCCCCC1CCN(C(=O)c2ccccc2)CC1 + Cc1cc(SCc2sc(-c3ccc(C(F)(F)F)c(F)c3)nc2C)ccc1OCC(=O)O [GW0742] (first compound 0.01 µM, partner dose 2 µM) | 67.8 | 46 | 66.1 | 77 | 4110 | 108 | 152 | 314 |  | 
7 | C[C@]12O[C@H](C[C@]1(O)CO)n1c3ccccc3c3c4c(c5c6ccccc6n2c5c31)CNC4=O [Lestaurtinib] + Cc1cc(SCc2sc(-c3ccc(C(F)(F)F)c(F)c3)nc2C)ccc1OCC(=O)O [GW0742] (first compound 0.004 µM, partner dose 2 µM) | 174 | 13.9 | 31.1 | 86.2 | 144 | 80.9 | 154 | 148 |  | 
8 | N.N.[Cl][Pt][Cl] [cisplatin] + COC(=O)c1sccc1S(=O)(=O)Nc1ccc(Nc2ccccc2)cc1OC [GSK0660] (first compound 1.6 µM, partner dose 1 µM) | 56.6 | 45.7 | 133 | 68.4 | 201 | 74.3 | 169 | 125 |  | 
9 | Cc1cc(Nc2cc(N3CCN(C)CC3)nc(Sc3ccc(NC(=O)C4CC4)cc3)n2)n[nH]1 [Tozasertib] + O=C(Oc1ccc([N+](=O)[O-])cc1)N1CCC(C(O)(c2ccc3c(c2)OCO3)c2ccc3c(c2)OCO3)CC1 [JZL184] (first compound 0.006 µM, partner dose 1 µM) | 36.2 | 19.6 | 54.5 | 225 | 285 | 102 | 36 | 69.5 |  | 
10 | Cc1cc(Nc2cc(N3CCN(C)CC3)nc(/C=C/c3ccccc3)n2)n[nH]1 + Cc1cc(SCc2sc(-c3ccc(C(F)(F)F)c(F)c3)nc2C)ccc1OCC(=O)O [GW0742] (first compound 0.04 µM, partner dose 2 µM) | 74.4 | 29.1 | 151 | 73.5 | 47.6 | 101 | 88.4 | 96.3 |  | 
11 | C[C@]12O[C@H](C[C@]1(O)CO)n1c3ccccc3c3c4c(c5c6ccccc6n2c5c31)CNC4=O [Lestaurtinib] + OCCn1cc(-c2cnc3nnn(Cc4ccc5ncccc5c4)c3n2)cn1 [PF04217903] (first compound 0.004 µM, partner dose 1 µM) |  | 78.2 | 87.3 | 108 | 220 | 73 | 120 | 87.2 | 16.5 | 146
12 | Cn1cc(C2=C(c3cn(C4CCN(Cc5ccccn5)CC4)c4ccccc34)C(=O)NC2=O)c2ccccc21 [Enzastaurin] + CC(C)(C)c1cnc(CSc2cnc(NC(=O)C3CCNCC3)s2)o1 [SNS-032] (first compound 0.8 µM, partner dose 0.01 µM) |  | 42.5 | 109 | 126 | 272 | 96.3 | 149 | 108 | 36.2 | 89.1
13 | Cn1cc(C2=C(c3cn(C4CCN(Cc5ccccn5)CC4)c4ccccc34)C(=O)NC2=O)c2ccccc21 [Enzastaurin] + CCCCCCCCCCCC1=C(O)C(=O)C=C(O)C1=O [Embelin] (first compound 0.8 µM, partner dose 1.2 µM) | 36.6 | 27.6 | 61 | 82.7 | 104 | 95 | 61 | 85.1 |  | 
14 | O=C(O)[C@@H]1[O][Sb](=[O])([O][Sb]2(=[O])[O][C@H]([C@H](O)CO)[C@H](O)[C@H](C(=O)O)[O]2)[O][C@H]([C@H](O)CO)[C@@H]1O (some centres undefined) [stibogluconate] + O=C(Oc1ccc([N+](=O)[O-])cc1)N1CCC(C(O)(c2ccc3c(c2)OCO3)c2ccc3c(c2)OCO3)CC1 [JZL184] (first compound 2 µM, partner dose 1 µM) | 206 | 30.4 | 91.9 | 91.3 | 102 | 87.3 | 27.1 | 83.7 |  | 
15 | O=C(O)c1ccc2c(c1)nc(Nc1cccc(Cl)c1)c1ccncc12 + O=C(Oc1ccc([N+](=O)[O-])cc1)N1CCC(C(O)(c2ccc3c(c2)OCO3)c2ccc3c(c2)OCO3)CC1 [JZL184] (first compound 0.4 µM, partner dose 1 µM) | 101 | 24.8 | 125 | 31.9 | 96.3 | 117 | 130 | 124 |  | 
16 | N.N.[Cl][Pt][Cl] [cisplatin] + C=CCn1c(=O)c2cnc(Nc3ccc(N4CCN(C)CC4)cc3)nc2n1-c1cccc(C(C)(C)O)n1 [MK1775] (first compound 1.6 µM, partner dose 0.02 µM) |  | 266 | 83.4 | 176 | 222 | 116 | 90.9 | 90.6 | 85.8 | 68.2
17 | Cn1cnc2c(F)c(Nc3ccc(Br)cc3Cl)c(C(=O)NOCCO)cc21 [selumetinib] + O=C(Oc1ccc([N+](=O)[O-])cc1)N1CCC(C(O)(c2ccc3c(c2)OCO3)c2ccc3c(c2)OCO3)CC1 [JZL184] (first compound 0.015 µM, partner dose 1 µM) | 124 | 47.7 | 85.1 | 229 | 138 | 87.8 | 28 | 262 |  | 
18 | C[C@]12O[C@H](C[C@]1(O)CO)n1c3ccccc3c3c4c(c5c6ccccc6n2c5c31)CNC4=O [Lestaurtinib] + COC(=O)c1sccc1S(=O)(=O)Nc1ccc(Nc2ccccc2)cc1OC [GSK0660] (first compound 0.004 µM, partner dose 1 µM) | 76.9 | 145 | 65.3 | 67 | 143 | 95.7 | 145 | 100 |  | 
19 | Cn1cc(C2=C(c3cn(C4CCN(Cc5ccccn5)CC4)c4ccccc34)C(=O)NC2=O)c2ccccc21 [Enzastaurin] + N#Cc1c(O)c2c(-c3ccc(-c4ccccc4O)cc3)csc2[nH]c1=O [A769662] (first compound 0.8 µM, partner dose 2 µM) | 158 | 15.9 | 232 | 66.1 | 187 | 117 | 120 | 115 |  | 
20 | Nc1ncn([C@H]2C[C@H](O)[C@@H](CO)O2)c(=O)n1 [decitabine] + O=C(Oc1ccc([N+](=O)[O-])cc1)N1CCC(C(O)(c2ccc3c(c2)OCO3)c2ccc3c(c2)OCO3)CC1 [JZL184] (first compound 0.1 µM, partner dose 1 µM) | 221 | 28.2 | 124 | 161 | 126 | 112 | 62.3 | 107 |  | 
21 | C[C@]12O[C@H](C[C@]1(O)CO)n1c3ccccc3c3c4c(c5c6ccccc6n2c5c31)CNC4=O [Lestaurtinib] + O=C(O)C(=O)Nc1sc2c(c1C(=O)O)CCNC2 [TCS401] (first compound 0.004 µM, partner dose 1.66667 µM) | 34.3 | 8.53 | 85.3 | 38.4 | 62.8 | 77.7 | 75.1 | 71 |  | 
22 | O=C(/C=C/c1cccnc1)NCCCCC1CCN(C(=O)c2ccccc2)CC1 + C/C(O)=C(\C#N)C(=O)Nc1cc(Br)ccc1Br [LFM-A13] (first compound 0.01 µM, partner dose 2 µM) | 730 | 20.5 | 118 | 76.3 | 3540 | 112 | 127 | 705 |  | 
23 | Nc1ncn([C@H]2C[C@H](O)[C@@H](CO)O2)c(=O)n1 [decitabine] + Cc1cc(SCc2sc(-c3ccc(C(F)(F)F)c(F)c3)nc2C)ccc1OCC(=O)O [GW0742] (first compound 0.1 µM, partner dose 2 µM) | 148 | 10.9 | 151 | 41.1 | 93.3 | 95.3 | 86.9 | 78.9 |  | 
24 | Cn1cc(C2=C(c3cn(C4CCN(Cc5ccccn5)CC4)c4ccccc34)C(=O)NC2=O)c2ccccc21 [Enzastaurin] + Cn1cc(/C=C2\C(=O)Nc3cccnc32)c2ccccc21 [GW441756] (first compound 0.8 µM, partner dose 0.4 µM) | 134 | 28.6 | 84 | 38.4 | 163 | 135 | 116 | 162 |  | 
25 | C[C@]12O[C@H](C[C@]1(O)CO)n1c3ccccc3c3c4c(c5c6ccccc6n2c5c31)CNC4=O [Lestaurtinib] + CCN(CC)CCCCNc1ncc2cc(-c3cc(OC)cc(OC)c3)c(NC(=O)NC(C)(C)C)nc2n1 [PD173074] (first compound 0.004 µM, partner dose 0.1 µM) | 77.1 | 31.9 | 110 | 61.1 | 265 | 109 | 18.6 | 62.2 |  | 
26 | N.N.[Cl][Pt][Cl] [cisplatin] + Cc1cc([N+](=O)[O-])ccc1NS(=O)(=O)c1cc(Cl)ccc1Cl [FH535] (first compound 1.6 µM, partner dose 1 µM) | 61.5 | 16.1 | 156 | 118 | 759 | 243 | 437 | 589 |  | 
27 | Cn1cc(C2=C(c3cn(C4CCN(Cc5ccccn5)CC4)c4ccccc34)C(=O)NC2=O)c2ccccc21 [Enzastaurin] + Oc1cc(-c2nc(-c3ccccc3)[nH]c2-c2ccncc2)ccc1Cl [L779450] (first compound 0.8 µM, partner dose 0.2 µM) | 107 | 51.9 | 130 | 114 | 48.4 | 90.1 | 71.9 | 786 |  | 

Two records drawn at random from the list so far:
Row | SMILES | cleaved PARP positive nuclei fraction (501Mel) [%] | cleaved PARP positive nuclei fraction (A101D) [%] | cleaved PARP positive nuclei fraction (A2058) [%] | cleaved PARP positive nuclei fraction (C32) [%] | cleaved PARP positive nuclei fraction (CBRC008) [%] | cleaved PARP positive nuclei fraction (CBRC014) [%] | cleaved PARP positive nuclei fraction (CBRC016) [%] | cleaved PARP positive nuclei fraction (CBRC017) [%] | cleaved PARP positive nuclei fraction (A375) [%] | cleaved PARP positive nuclei fraction (CBRC013) [%]
10 | Cc1cc(Nc2cc(N3CCN(C)CC3)nc(/C=C/c3ccccc3)n2)n[nH]1 + Cc1cc(SCc2sc(-c3ccc(C(F)(F)F)c(F)c3)nc2C)ccc1OCC(=O)O [GW0742] (first compound 0.04 µM, partner dose 2 µM) | 74.4 | 29.1 | 151 | 73.5 | 47.6 | 101 | 88.4 | 96.3 |  | 
16 | N.N.[Cl][Pt][Cl] [cisplatin] + C=CCn1c(=O)c2cnc(Nc3ccc(N4CCN(C)CC4)cc3)nc2n1-c1cccc(C(C)(C)O)n1 [MK1775] (first compound 1.6 µM, partner dose 0.02 µM) |  | 266 | 83.4 | 176 | 222 | 116 | 90.9 | 90.6 | 85.8 | 68.2
